Experimental data reported in publication PMC7279889.
For at least one entry, the source does not settle the construct or the ends of the probe. Weaker means in comparison with the reference protein, sequence or condition of that experiment.

Biological target: FMRP RGG domain (Mus musculus) (UniProt P35922)
Experiment: fluorescence polarization
Conditions: 150 mM LiCl, less RNA bound, affinity stated as unchanged (author response); FP: 10 mM Tris-HCl (pH not stated), 150 mM KCl or LiCl, 5% glycerol, 10 nM RNA, protein 2 nM-1 uM, 5 min at 25 C, read at 26-27 C; recombinant protein; residues 478-614; label: 3' 6-FAM

GGGAGGGAGGGAGGGUA [rG4 in LiCl (quadruplex disrupted)]
binding result: binds more weakly
